Results are given as percent effect. How 0% and 100% were set is not recorded. Most values in the screen are low, and negative values occur. Compounds were drawn at random from those tested, without regard to their results. A dash means the value is not listed here; it may have been measured.

A: 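Whole-parasite assay of Trypanosoma brucei over 72 hours; the read-out is not stated. Tested at 30 µM. Direction is inferred from retests: higher values go with stronger inhibition. Values scatter widely below zero; nearly all retest evidence comes from the higher of the two concentrations used. Of about 64,000 compounds tested this way, about 940 (1.5%) reached 50% or more in at least one test.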
B: 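Assay of Toxoplasma gondii numbers, read through their beta-galactosidase reporter with a colour substrate. Compounds at 10 µM. The record gives no direction; the compounds picked for IC50 retests had high values, so higher reads as fewer parasites. About 67,000 compounds were tested under these conditions; 0.38% (about 260) showed 50% or more at least once.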

compound	A	B
CCc1nnc2n1CCN(C(=O)c1cc(Br)c[nH]1)C2	32.86	3.917
Cc1cc(C(=O)N2CCCCC2C)ccc1NCC(=O)N1CCOCC1 (centres unmarked)	15.1	1.059
COc1cc(NC(=O)NCc2nccn2C)ccc1Br	9.776	5.698
O[C@H]1[C@H](NCCc2ccccn2)c2ccccc2C12CCNCC2	-44.79	2.276
COc1ccnc(N2CCN(C(C)c3nc(C)no3)CC2)n1 (centres unmarked)	-18.54	1.941
CCc1noc(C(C)N(C)CC(=O)Nc2cccc(C)n2)n1 (centres unmarked)	48.45	0.3284
COc1cc(C2SCC(=O)Nc3[nH]ncc32)cc(OC)c1OC (centres unmarked)	31.58	-4.588
COc1ccc2c(c1)CCN(CCC(=O)NC1CCCCC1)CC2	1.969	-4.039
c1ccc(Oc2cc(CNCC3CNc4ccnn4C3)ccn2)cc1 (centres unmarked)	-9.429	-62.37
O=C(N[C@H]1COC[C@@H]1N1CCCC1)c1c[nH]nc1C1CCCCC1	-86.83	7.68
COC1CN(C(=O)CC(C)C)CCC(=O)N(C)c2ccccc21 (centres unmarked)	-23.93	-20.77
CN(C)C(=O)c1cc2c(s1)CCN(C(=O)CCCN1CCCCC1)C2	-116.5	12.16
O=S(=O)(c1c(Cl)nc2sccn12)N1CCCC2(CCNC2)C1 (centres unmarked)	13.76	-16.79
Clc1cccc(C(NCc2ncc[nH]2)c2ccccn2)c1 (centres unmarked)	-3.641	8.083
COc1cccn(CC(=O)N2CCCC3(CCCO3)CC2)c1=O (centres unmarked)	-12.23	-54.99
Cc1ccc(CN(CCCn2ccnc2)Cc2c(F)cccc2F)s1.O=C(O)CC(O)(CC(=O)O)C(=O)O	-13.01	36.95
Cc1ccc(C)c(NC(=O)c2cc(S(=O)(=O)N3CCSCC3)c[nH]2)c1	69.72	12.33
CCc1nnc2n1CCN(c1nc3ccccc3o1)C2	-34.35	2.875
CS(=O)(=O)N1CCCN(C(=O)c2ccc(Cn3ccccc3=O)o2)CC1	6.242	2.585
CCCc1nc(N[C@H]2COC[C@@H]2N2CCCCC2)c2cnn(C)c2n1	3.557	-11.79
Fc1cc(CNCCn2cccn2)ccc1-n1cncn1	-16.16	7.442
O=C(NCc1ccccc1)c1nc2c(o1)CN(C(=O)c1cccnc1)C2.O=C(O)C(F)(F)F	-26.76	-15.17
Cc1ccc(OCCC(=O)NCCCN2CCCC2=O)c(C)c1	0.5553	4.071
CCn1cc(S(=O)(=O)N2CCN(S(=O)(=O)c3ccc(Br)s3)CC2)cn1	-22.96	-9.772
COc1ccc(CN(C)C(=O)c2nnc(CN(C)C)o2)cc1	4.873	0.634
Cc1cc(C)n(CC2CN(CC(=O)Nc3c(C)n[nH]c3C)CCO2)n1 (centres unmarked)	7.982	-1.165
CN(CCCNC(=O)N1CCCC1c1ccsc1)c1ccccn1 (centres unmarked)	-5.374	1.694
COc1ccc(C2=CCN(C(=O)C3CCCN(C(N)=O)C3)CC2)cc1 (centres unmarked)	42.47	-1.695
CNC(=O)NCC(=O)Nc1ccccc1N1CCc2ccccc21	-20.42	3.058
O=C(O)C(F)(F)F.O=C(c1ccco1)N1CCc2c(COCC3CC3)cncc2C1	-6.678	2.821
Cc1ccc2c(c1)c(CNC(=O)C1CC(=O)N(C3CC3)C1)nn2C (centres unmarked)	-19.14	-13.07
COc1ccccc1CC1CCCN(C(=O)c2cc[nH]n2)C1 (centres unmarked)	-1.02	4.307
O=C1CC(c2ccccc2)c2sc(C(=O)O)c(-c3ccccc3)c2N1 (centres unmarked)	-7.42	-16.81
Cl.O=C(C1CC1)N1CC2(CCNCC2)C1	-19.94	2.086
Cn1cc(C(NCc2ccc(F)cc2)c2cccc(F)c2)cn1 (centres unmarked)	-47.11	-3.22
CS(=O)(=O)N1CC2(CCN(c3nccs3)CC2)c2ccccc21	-17.89	16.44
COc1ccc(S(=O)(=O)NC(=O)c2ccccc2F)cc1OC	-0.8229	5.93
O=C(NC1CC1)N1Cc2[nH]nc(COCC3CC3)c2C1	-31.25	-2.37
CC(C)N(C)C(=O)C1=NOC2(CCN(C(=O)c3ccncc3)C2)C1 (centres unmarked)	-21.15	4.027
[H][C@]12CC[C@]([H])(CN(c3nccc(OC)n3)C1)N(CC1CCC1)C2=O	0.242	5.104
O=C(NCc1nncn1C1CCCCC1)C1COc2ccccc2C1 (centres unmarked)	-17.23	10.63
Fc1ccccc1OCCN1CCCCC1Cn1cncn1 (centres unmarked)	-21.65	4.532
Cc1cc(C)c(CNC(=O)N2CCC(N3CCCCC3)CC2)c(=O)[nH]1	-24.44	9.702
COc1cccc(-c2ncc3c(n2)N(C)CCN(CCN(C)C)C3=O)c1	19.59	-8.769
CCN1CC[C@]2(CN(C(=O)[C@H]3CCCO3)C[C@H]2c2ccccc2)C1=O	-	-16.3
CNC(=O)C1(CCCc2ccccn2)CN(Cc2nccn2C)C1	-6.287	3.451
[H][C@]12CC[C@@]3(N=C(C)N(CC(C)C)C3=O)[C@@]1([H])CN(C(=O)NC(C)C)C2	-6.999	-3.325
CN(Cc1ccco1)C(=O)[C@H]1CSCN1C(=O)OC(C)(C)C	-4.633	-5.336
O=C(c1ccccn1)N(CCO)Cc1cc(Br)ccc1F	-15.68	-4.912
[H][C@]12CC[C@]([H])(CN(Cc3ccccc3)C1)N(C(=O)Nc1ccccc1)C2	0.2733	-1.326
[H][C@@]12CC[C@@](O)(c3ccc(C)cn3)[C@]1([H])CN(Cc1cccnc1)C2	-17.74	6.613
CC(C)N(C)Cc1cnc2n1CCN(C(=O)Cc1cccs1)C2C.O=C(O)C(F)(F)F (centres unmarked)	-25.12	-1.674
CC(NC(=O)c1coc(COc2cccc(F)c2)n1)c1nnc(N)s1 (centres unmarked)	-208.8	1.199
CCN(C)C(=O)Cn1c(-c2ccco2)nn(-c2ccccc2OC)c1=O	28	-44.26
CS(=O)(=O)NCCNC(=O)C1(c2cccc(Cl)c2)CC1	-2.663	-2.966
COc1cccc(NC(=O)N(CCC(F)(F)F)C[C@H](O)CO)c1	-74.13	3.721
CN1Cc2c(C(=O)NCC3CCCO3)ncn2-c2ccccc2S1(=O)=O (centres unmarked)	-20.86	-25.64
Cc1nnc(NC(=O)CN2CCCC(c3ccn[nH]3)C2)s1 (centres unmarked)	-16.15	-0.6715
CCc1ccc2nc(NCCCN(CCO)CCO)cc(C)c2c1	47.38	15.64
CC/C(C)=C/CCN1CCN(C)C2(CCNC(=O)CC2)C1 (centres unmarked)	-	-2.268
CN(Cc1ccc([S+](C)[O-])cc1)c1cncc(Cl)n1 (centres unmarked)	8.262	12.54
CSCCC(=O)N1CC[C@@H](N2CCN(c3ccccc3F)CC2)[C@H](O)C1	-13.08	-8.908
Cc1cc(C(=O)Nc2ccnc(OC3CCOC3)c2)c(C)o1 (centres unmarked)	-42.23	-2.149
COC(=O)c1cccc(C(=O)N(C)Cc2ccsc2)c1	-33.72	32.32
CNC(=O)C1CCN(Cc2cc3c(cc2O)CCC3)CC1	-47.96	-3.553
Cc1ncc(CN(C)C)c(C2CCCN2c2ncccn2)n1 (centres unmarked)	-	-21.25
[H][C@@]12CC[C@H](Oc3cccc(F)c3)[C@]1([H])CN(C(=O)Cn1ccnc1)C2	9.78	-16.64
Cc1nccnc1N1CCC2(CCCN(C3CCOCC3)C2=O)C1 (centres unmarked)	-56.06	19.87
CCN(Cc1ccco1)C(=O)NCc1nnc2n1CCC2	-3.453	-9.002
CSc1cccc(NC(=O)Nc2c(O)oc3ccccc3c2=O)c1	-35.12	-18.76
CC1CCN(C(=O)CCN2Cc3ccccc3C[C@H]2C(N)=O)C1 (some centres unmarked)	-63.03	5.829
O=C(NCC(=O)N1CC2(CCCC2)c2c(F)cccc21)C1CC1	-3.127	-1.256
CCOc1cc(C)nc(N2CCN(C(=O)CC)CC2)n1	3.87	2.477

Repeated from the top, 8 entries:

With CCc1nnc2n1CCN(C(=O)c1cc(Br)c[nH]1)C2 the screen gave A: 32.86%; B: 3.917%.
With Cc1cc(C(=O)N2CCCCC2C)ccc1NCC(=O)N1CCOCC1 (centres unmarked) the screen gave A: 15.1%; B: 1.059%.
With COc1cc(NC(=O)NCc2nccn2C)ccc1Br the screen gave A: 9.776%; B: 5.698%.
With O[C@H]1[C@H](NCCc2ccccn2)c2ccccc2C12CCNCC2 the screen gave A: -44.79%; B: 2.276%.
With COc1ccnc(N2CCN(C(C)c3nc(C)no3)CC2)n1 (centres unmarked) the screen gave A: -18.54%; B: 1.941%.
With CCc1noc(C(C)N(C)CC(=O)Nc2cccc(C)n2)n1 (centres unmarked) the screen gave A: 48.45%; B: 0.3284%.
With COc1cc(C2SCC(=O)Nc3[nH]ncc32)cc(OC)c1OC (centres unmarked) the screen gave A: 31.58%; B: -4.588%.
With COc1ccc2c(c1)CCN(CCC(=O)NC1CCCCC1)CC2 the screen gave A: 1.969%; B: -4.039%.

The values are deposited in ChEMBL (CHEMBL3988442, “University of Dundee, Small-Polar-MMV Screening Library” (2021)).